From publication PMC8196013
Results are given in words; binding and its absence hold for the method and conditions named. Binding seen in cells or lysates may run through a third protein. Some results given as binding are weak or reduced against the parent protein; the word gives no strength.

Tests used:
Assay in all cases: cross-linking; BS3 or DSSO (0.75 mM, 2 h on ice) in each of 44 SEC fractions of E. coli K12 BW25113 lysate, fractions pooled, digested, SCX and hSAX fractionation, LC-MS; PPIs at 1% heteromeric decoy-based PPI-FDR
[1] = biological target: T1, YgaM (E. coli K12 (endogenous in BW25113)) (UniProt P0ADQ7)
T1 sequence: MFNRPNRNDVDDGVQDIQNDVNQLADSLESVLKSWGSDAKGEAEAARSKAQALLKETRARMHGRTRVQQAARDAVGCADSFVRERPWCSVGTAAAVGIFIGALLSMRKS

[2] = biological target: T2, YqjD (E. coli K12 (endogenous in BW25113)) (UniProt P64581)
T2 sequence: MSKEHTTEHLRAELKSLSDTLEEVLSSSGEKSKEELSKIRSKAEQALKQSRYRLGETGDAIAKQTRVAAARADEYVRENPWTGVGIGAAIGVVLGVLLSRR

[3] = biological target: T3, DegQ (E. coli K12 (endogenous in BW25113)) (UniProt P39099)
T3 sequence: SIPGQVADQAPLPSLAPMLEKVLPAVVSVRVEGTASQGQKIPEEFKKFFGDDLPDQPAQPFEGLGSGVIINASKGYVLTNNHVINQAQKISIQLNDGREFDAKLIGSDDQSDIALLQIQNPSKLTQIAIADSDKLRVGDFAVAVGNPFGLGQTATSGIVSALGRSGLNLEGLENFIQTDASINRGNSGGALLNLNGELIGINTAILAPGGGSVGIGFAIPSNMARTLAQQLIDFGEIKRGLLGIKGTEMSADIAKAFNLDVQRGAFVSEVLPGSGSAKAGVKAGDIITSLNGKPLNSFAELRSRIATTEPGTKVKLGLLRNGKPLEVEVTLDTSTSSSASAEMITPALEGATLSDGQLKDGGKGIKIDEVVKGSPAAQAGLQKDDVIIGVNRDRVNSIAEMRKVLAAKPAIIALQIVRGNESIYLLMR

[4] = biological target: T4, UbiJ (E. coli K12 (endogenous in BW25113)) (UniProt P0ADP7)
T4 sequence: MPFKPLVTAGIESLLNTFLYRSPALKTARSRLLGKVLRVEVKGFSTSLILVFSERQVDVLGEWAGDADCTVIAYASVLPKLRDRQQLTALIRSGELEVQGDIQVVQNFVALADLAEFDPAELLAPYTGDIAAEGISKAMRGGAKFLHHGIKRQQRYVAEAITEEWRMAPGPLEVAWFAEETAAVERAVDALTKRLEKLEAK

B1: ElaB (protein, UniProt P0AEH5 1-101)
chain: MSNQFGDTRIDDDLTLLSETLEEVLRSSGDPADQKYVELKARAEKALDDVKKRVSQASDSYYYRAKQAVYRADDYVHEKPWQGIGVGAAVGLVLGLLLARR
B1 was tested, and the binding [1] was “binds” and the binding [2] was “binds”.

B2: DegP (enzyme, UniProt P0C0V0 27-474)
chain: AETSSATTAQQMPSLAPMLEKVMPSVVSINVEGSTTVNTPRMPRNFQQFFGDDSPFCQEGSPFQSSPFCQGGQGGNGGGQQQKFMALGSGVIIDADKGYVVTNNHVVDNATVIKVQLSDGRKFDAKMVGKDPRSDIALIQIQNPKNLTAIKMADSDALRVGDYTVAIGNPFGLGETVTSGIVSALGRSGLNAENYENFIQTDAAINRGNSGGALVNLNGELIGINTAILAPDGGNIGIGFAIPSNMVKNLTSQMVEYGQVKRGELGIMGTELNSELAKAMKVDAQRGAFVSQVLPNSSAAKAGIKAGDVITSLNGKPISSFAALRAQVGTMPVGSKLTLGLLRDGKQVNVNLELQQSSQNQVDSSSIFNGIEGAEMSNKGKDQGVVVNNVKTGTPAAQIGLKKGDVIIGANQQAVKNIAELRKVLDSKPSVLALNIQRGDSTIYLLMQ
For B2, the binding [3] was “binds”.

B3: UbiK (protein, UniProt Q46868 1-96)
chain: MIDPKKIEQIARQVHESMPKGIREFGEDVEKKIRQTLQAQLTRLDLVSREEFDVQTQVLLRTREKLALLEQRISELENRSTEIKKQPDPETLPPTL
In the case of B3, the binding [4] is reported as “binds”.
